Here are results for 38 targets from the supplement of paper PMC10849652.

The chains behind the UniProt entries cited, without tags or fusion partners. Where a name states a change or a piece, a line headed by the entry shows the natural chain unless it says otherwise.
UniProt Q9NQX7: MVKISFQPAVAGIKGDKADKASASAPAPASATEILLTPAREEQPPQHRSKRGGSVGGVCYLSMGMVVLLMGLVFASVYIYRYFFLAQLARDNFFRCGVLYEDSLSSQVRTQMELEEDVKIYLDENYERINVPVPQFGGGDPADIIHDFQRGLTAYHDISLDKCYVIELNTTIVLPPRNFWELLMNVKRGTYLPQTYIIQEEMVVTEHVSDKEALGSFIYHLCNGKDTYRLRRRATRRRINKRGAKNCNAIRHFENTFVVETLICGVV
UniProt Q75QN2, whole entry, looked up: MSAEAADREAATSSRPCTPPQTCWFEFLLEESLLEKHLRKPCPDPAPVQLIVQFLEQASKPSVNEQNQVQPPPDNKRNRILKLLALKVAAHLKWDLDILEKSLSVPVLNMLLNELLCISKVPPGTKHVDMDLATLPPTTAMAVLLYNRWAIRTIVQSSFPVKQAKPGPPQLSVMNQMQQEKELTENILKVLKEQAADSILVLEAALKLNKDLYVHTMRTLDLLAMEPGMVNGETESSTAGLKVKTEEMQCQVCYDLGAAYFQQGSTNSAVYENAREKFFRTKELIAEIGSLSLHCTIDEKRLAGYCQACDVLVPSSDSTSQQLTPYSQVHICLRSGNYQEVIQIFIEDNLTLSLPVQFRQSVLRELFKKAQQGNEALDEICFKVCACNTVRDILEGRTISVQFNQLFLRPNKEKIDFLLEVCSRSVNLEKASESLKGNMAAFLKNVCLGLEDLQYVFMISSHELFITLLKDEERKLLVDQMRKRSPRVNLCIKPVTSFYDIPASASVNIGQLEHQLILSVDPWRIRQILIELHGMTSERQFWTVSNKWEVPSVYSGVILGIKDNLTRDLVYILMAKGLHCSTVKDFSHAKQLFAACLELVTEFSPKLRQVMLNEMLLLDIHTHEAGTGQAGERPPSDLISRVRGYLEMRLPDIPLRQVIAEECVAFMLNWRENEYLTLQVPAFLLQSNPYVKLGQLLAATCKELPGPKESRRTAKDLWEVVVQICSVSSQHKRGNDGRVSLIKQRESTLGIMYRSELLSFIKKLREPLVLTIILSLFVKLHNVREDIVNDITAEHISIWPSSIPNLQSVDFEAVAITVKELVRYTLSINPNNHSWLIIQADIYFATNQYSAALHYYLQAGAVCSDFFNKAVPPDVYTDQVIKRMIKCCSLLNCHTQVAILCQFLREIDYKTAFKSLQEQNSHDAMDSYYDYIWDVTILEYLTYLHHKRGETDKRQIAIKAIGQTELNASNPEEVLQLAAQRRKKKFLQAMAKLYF
UniProt Q15652: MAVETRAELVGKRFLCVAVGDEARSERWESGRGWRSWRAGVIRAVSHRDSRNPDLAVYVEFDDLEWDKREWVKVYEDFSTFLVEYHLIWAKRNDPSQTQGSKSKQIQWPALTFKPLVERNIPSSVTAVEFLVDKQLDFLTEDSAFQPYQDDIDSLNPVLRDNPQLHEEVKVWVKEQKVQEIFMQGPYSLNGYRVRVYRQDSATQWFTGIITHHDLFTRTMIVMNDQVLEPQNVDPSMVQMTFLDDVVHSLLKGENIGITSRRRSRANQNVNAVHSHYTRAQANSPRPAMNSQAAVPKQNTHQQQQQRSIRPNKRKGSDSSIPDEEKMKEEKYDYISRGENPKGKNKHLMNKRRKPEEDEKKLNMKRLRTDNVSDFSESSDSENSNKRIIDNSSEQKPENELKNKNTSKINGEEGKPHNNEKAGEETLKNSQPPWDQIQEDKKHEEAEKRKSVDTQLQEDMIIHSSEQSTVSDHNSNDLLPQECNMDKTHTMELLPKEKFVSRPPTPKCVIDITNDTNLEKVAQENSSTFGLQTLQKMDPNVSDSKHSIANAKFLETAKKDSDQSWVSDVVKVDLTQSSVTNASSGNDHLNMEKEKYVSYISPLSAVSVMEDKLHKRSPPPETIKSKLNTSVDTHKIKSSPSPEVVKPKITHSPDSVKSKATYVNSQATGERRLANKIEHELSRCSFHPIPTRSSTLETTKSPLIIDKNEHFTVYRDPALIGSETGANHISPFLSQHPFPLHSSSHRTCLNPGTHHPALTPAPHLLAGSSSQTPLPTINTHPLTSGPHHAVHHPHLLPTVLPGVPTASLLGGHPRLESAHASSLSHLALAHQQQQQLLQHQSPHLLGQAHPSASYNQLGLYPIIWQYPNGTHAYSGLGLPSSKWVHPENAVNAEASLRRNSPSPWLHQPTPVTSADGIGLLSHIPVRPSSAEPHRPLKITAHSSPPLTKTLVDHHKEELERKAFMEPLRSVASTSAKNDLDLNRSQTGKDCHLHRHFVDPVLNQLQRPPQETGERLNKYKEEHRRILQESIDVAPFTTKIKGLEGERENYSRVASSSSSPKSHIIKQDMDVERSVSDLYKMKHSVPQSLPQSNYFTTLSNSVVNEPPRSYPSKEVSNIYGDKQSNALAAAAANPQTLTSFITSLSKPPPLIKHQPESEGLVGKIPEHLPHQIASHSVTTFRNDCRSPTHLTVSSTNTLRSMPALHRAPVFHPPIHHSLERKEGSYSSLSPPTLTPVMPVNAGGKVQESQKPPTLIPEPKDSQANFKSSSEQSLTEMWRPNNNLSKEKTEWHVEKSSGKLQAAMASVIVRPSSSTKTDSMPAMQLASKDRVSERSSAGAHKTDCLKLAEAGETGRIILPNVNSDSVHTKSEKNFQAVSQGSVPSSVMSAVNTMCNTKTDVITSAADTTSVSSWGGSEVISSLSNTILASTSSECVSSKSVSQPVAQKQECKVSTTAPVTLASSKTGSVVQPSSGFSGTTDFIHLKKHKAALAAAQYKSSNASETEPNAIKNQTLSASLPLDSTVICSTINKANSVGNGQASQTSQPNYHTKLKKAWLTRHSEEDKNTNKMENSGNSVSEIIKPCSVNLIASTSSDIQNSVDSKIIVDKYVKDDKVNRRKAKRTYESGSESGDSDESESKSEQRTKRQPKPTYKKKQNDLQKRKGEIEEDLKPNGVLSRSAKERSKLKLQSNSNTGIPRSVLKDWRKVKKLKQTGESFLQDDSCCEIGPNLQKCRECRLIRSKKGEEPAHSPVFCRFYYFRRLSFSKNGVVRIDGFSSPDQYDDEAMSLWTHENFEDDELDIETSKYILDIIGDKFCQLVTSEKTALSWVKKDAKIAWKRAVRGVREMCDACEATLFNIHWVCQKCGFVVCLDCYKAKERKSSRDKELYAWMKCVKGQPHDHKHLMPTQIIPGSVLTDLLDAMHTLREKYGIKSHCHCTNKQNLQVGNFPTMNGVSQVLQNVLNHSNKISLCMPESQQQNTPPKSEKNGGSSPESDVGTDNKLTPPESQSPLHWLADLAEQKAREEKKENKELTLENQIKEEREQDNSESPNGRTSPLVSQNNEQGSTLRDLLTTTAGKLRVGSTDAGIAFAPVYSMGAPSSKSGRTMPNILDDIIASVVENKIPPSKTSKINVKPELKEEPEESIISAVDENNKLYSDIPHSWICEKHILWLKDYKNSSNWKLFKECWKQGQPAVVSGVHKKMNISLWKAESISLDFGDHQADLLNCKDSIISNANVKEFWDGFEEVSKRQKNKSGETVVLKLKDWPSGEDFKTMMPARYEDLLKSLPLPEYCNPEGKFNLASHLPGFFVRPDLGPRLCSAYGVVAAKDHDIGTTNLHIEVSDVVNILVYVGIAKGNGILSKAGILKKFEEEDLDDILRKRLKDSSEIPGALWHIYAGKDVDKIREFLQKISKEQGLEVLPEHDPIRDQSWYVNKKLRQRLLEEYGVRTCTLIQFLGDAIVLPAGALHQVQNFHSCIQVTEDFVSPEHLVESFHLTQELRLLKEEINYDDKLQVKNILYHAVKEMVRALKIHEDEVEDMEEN
UniProt Q9BVA0, whole entry, looked up: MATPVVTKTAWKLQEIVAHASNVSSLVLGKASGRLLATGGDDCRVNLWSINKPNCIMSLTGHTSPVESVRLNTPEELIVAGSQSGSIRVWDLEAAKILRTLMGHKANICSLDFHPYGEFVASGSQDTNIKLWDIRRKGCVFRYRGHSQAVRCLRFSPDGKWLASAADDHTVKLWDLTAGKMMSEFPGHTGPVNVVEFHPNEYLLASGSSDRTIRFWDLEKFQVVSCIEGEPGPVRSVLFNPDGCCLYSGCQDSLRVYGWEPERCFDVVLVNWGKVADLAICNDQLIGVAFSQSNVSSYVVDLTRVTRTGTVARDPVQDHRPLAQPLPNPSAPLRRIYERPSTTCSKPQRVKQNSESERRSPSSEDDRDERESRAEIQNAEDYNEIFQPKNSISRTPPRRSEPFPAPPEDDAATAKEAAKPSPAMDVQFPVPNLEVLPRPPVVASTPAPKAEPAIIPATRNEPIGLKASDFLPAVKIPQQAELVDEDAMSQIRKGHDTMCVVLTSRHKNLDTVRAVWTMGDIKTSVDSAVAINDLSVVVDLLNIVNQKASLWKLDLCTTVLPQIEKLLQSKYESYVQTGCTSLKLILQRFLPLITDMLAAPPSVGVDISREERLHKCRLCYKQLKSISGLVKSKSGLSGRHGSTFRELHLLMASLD
UniProt Q9NXV2: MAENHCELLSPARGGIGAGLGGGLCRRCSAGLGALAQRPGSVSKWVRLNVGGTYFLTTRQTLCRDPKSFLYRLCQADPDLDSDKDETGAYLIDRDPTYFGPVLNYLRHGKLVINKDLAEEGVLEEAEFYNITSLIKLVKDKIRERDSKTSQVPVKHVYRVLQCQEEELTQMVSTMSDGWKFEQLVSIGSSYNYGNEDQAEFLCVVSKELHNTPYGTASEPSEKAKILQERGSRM
UniProt Q96AB3: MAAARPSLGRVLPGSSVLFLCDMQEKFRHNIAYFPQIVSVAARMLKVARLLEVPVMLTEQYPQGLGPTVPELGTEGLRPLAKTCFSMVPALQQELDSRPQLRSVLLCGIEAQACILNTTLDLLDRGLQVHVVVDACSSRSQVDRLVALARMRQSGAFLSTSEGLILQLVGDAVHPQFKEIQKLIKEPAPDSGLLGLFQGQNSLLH
UniProt Q9H9V9: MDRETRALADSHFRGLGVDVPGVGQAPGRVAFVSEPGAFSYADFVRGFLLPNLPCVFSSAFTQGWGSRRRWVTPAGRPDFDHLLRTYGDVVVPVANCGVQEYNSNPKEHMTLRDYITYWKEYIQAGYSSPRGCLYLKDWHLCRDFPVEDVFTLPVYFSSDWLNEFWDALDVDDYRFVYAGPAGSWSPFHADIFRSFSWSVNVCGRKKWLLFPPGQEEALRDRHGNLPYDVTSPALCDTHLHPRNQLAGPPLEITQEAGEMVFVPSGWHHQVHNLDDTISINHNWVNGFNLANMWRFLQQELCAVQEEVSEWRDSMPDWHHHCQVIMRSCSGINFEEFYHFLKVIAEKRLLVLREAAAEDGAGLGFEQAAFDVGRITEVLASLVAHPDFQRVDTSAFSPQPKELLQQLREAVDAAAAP
UniProt P52333: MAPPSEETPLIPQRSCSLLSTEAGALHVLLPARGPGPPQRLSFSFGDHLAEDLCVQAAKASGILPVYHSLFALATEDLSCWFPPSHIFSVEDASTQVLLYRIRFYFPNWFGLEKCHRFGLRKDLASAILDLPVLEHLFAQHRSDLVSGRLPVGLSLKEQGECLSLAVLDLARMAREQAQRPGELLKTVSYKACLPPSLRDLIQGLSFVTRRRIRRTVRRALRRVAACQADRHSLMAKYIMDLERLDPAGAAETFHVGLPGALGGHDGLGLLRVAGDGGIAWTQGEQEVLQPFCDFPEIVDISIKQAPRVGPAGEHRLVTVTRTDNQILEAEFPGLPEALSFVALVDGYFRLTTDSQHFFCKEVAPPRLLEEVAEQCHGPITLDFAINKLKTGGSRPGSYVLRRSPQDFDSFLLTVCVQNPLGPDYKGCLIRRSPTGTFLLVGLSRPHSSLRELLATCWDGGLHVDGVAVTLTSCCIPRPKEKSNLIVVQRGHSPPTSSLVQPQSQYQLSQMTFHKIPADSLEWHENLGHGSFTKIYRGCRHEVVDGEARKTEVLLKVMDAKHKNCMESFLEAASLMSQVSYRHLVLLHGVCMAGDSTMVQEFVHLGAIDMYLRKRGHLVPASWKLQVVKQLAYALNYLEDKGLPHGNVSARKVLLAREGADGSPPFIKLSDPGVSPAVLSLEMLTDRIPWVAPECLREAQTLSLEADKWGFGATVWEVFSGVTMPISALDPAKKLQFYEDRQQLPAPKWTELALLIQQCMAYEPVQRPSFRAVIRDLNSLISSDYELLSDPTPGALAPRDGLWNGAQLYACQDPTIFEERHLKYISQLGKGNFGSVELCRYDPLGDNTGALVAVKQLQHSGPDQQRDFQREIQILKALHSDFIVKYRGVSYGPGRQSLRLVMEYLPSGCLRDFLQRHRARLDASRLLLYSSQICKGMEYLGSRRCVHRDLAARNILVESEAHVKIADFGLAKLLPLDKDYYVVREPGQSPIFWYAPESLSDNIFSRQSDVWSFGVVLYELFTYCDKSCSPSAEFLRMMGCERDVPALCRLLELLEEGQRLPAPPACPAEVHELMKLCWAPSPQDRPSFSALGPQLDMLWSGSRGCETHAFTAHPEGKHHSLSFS

The list shows a part of the results.

Compound in the first assay: C1=CC=C(C=C1)[C@H](COC2=CC3=C(C=C2)NC(=O)N3)NC(=O)C4=CC=CN(C4=O)CC5=CC(=C(C=C5)F)F
Briefly: log2 fold change, soluble protein after heating vs DMSO (PISA); higher = thermal stabilisation; K562 lysate, 10 uM; active = over 0.2 and 3.5 SD of the protein, either way, in both replicates (recomputed). In a few lines: (§1)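 Soluble protein was defined as the supernatant remaining after 21,000xg for 90 min, following pooling of heated aliquots and adjustment to 0.5% NP-40 at 4°C. Before that, crude K562 extract at 1 mg/mL protein in PBS pH 7.4 with 1 mM MgCl2 was treated with 10 μM compound for 30 min and heated for 3 min across 48°C-58°C. Quantification used TMTpro 16plex LC-MS/MS with channel sums equalised, and values are log-two fold changes in thermal stability relative to solvent controls from duplicates.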
On to JAGN1 (UniProt Q8N5M9), for which the log2 fold change is inactive: 0.064.

Turning to ITFG2 (UniProt Q969R8), the log2 fold change is inactive: -0.035.

In the case of KCMF1 (UniProt Q9P0J7), the log2 fold change is inactive: 0.055.

As for ITGB5 (UniProt P18084), the log2 fold change is inactive: 0.018.

Regarding ISYNA1 (UniProt Q9NPH2), the log2 fold change is inactive: 0.039.

On to JMJD6 isoform 3 (UniProt Q6NYC1), for which the log2 fold change is inactive: 0.043.

In the case of ITM2C (UniProt Q9NQX7), the log2 fold change was inactive: -0.326.

On to INTS8 (UniProt Q75QN2), for which the log2 fold change was inactive: 0.021.

For the target ITIH4 (UniProt Q14624), the log2 fold change was inactive: -0.002.

KANSL3 (UniProt Q9P2N6): the log2 fold change was inactive: 0.087.

For the target INTS3 (UniProt Q68E01), the log2 fold change is inactive: 0.017.

In the case of ISG15 (UniProt P05161), the log2 fold change is inactive: 0.007.

For ITGAE (UniProt P38570), the log2 fold change is inactive: -0.016.

With KCNK5 (UniProt O95279), the log2 fold change was inactive: 0.157.

Compound in another assay: CC1=C(SC2=C1C(=N[C@H](C3=NN=C(N32)C)CC(=O)N)C4=CC=C(C=C4)Cl)C
The description is as above. In a few lines:
as §1
Regarding IQUB (UniProt Q8NA54), the log2 fold change was inactive: 0.155.

As for KBTBD4 isoform 2 (UniProt Q9NVX7), the log2 fold change was inactive: -0.003.

With IWS1 (UniProt Q96ST2), the log2 fold change is inactive: -0.003.

Turning to IRF3 (UniProt Q14653), the log2 fold change is inactive: -0.011.

Take KDM1B (UniProt Q8NB78): the log2 fold change was inactive: 0.025.

Regarding ITPR1 (UniProt Q14643), the log2 fold change is inactive: 0.

Regarding JMJD1C (UniProt Q15652), the log2 fold change is inactive: -0.003.

Consider KATNB1 (UniProt Q9BVA0), for which the log2 fold change is inactive: -0.041.

Consider KATNAL1 (UniProt Q9BW62), for which the log2 fold change was inactive: 0.151.

Regarding KCTD5 (UniProt Q9NXV2), the log2 fold change was inactive: -0.047.

With IP6K1 (UniProt Q92551), the log2 fold change is inactive: 0.113.

For the target KCTD10 (UniProt Q9H3F6), the log2 fold change is inactive: 0.018.

As for KCTD9 (UniProt Q7L273), the log2 fold change was inactive: -0.028.

In the case of IREB2 (UniProt P48200), the log2 fold change is inactive: 0.022.

For the target IQGAP2 (UniProt Q13576), the log2 fold change was inactive: -0.04.

ITIH2 (UniProt P19823): the log2 fold change is inactive: 0.009.

Take ISOC2 (UniProt Q96AB3): the log2 fold change is inactive: 0.035.

Consider JMJD4 (UniProt Q9H9V9), for which the log2 fold change is inactive: -0.067.

Consider ITGB1 (UniProt P05556), for which the log2 fold change is inactive: -0.001.

Turning to INTS4 (UniProt Q96HW7), the log2 fold change was inactive: -0.028.

As for KCTD3 (UniProt Q9Y597), the log2 fold change is inactive: 0.074.

Consider JAK3 (UniProt P52333), for which the log2 fold change was inactive: -0.051.

As for ITM2A (UniProt O43736), the log2 fold change was inactive: 0.156.

With KAT8 (UniProt Q9H7Z6), the log2 fold change is inactive: -0.001.

Consider JAGN1 (UniProt Q8N5M9), for which the log2 fold change is inactive: -0.077.

Turning to ITFG2 (UniProt Q969R8), the log2 fold change was inactive: 0.008.

For KCMF1 (UniProt Q9P0J7), the log2 fold change is inactive: 0.008.

As for ITGB5 (UniProt P18084), the log2 fold change is inactive: -0.051.

For the target ISYNA1 (UniProt Q9NPH2), the log2 fold change was inactive: -0.017.

As to JMJD6 isoform 3 (UniProt Q6NYC1), the log2 fold change is inactive: -0.015.

As to ITM2C (UniProt Q9NQX7), the log2 fold change was inactive: 0.019.

With INTS8 (UniProt Q75QN2), the log2 fold change was inactive: -0.085.

For the target ITIH4 (UniProt Q14624), the log2 fold change is inactive: -0.011.

Regarding KANSL3 (UniProt Q9P2N6), the log2 fold change was inactive: 0.023.

INTS3 (UniProt Q68E01): the log2 fold change was inactive: 0.063.

Take ISG15 (UniProt P05161): the log2 fold change is inactive: 0.04.

On to ITGAE (UniProt P38570), for which the log2 fold change is inactive: 0.187.

KCNK5 (UniProt O95279): the log2 fold change is inactive: 0.
